At least one compound was matched to its structure with a doubt left.
Columns and labels:
[1] = test system: androgen receptor (AR); assay: Western blot validation of RPPA results in MDA-MB-231 cells; assay type: cell-based, human; settings: 10% FBS, varying concentrations
Experimental: (§1) If not indicated otherwise, cells were seeded and grown to 80% confluency and were treated with compound or control for 24 hours. Subsequently, the growth media was removed and the cells lysed by the addition of lysis buffer (25 mM Tris, pH 7.4; 1% NP-40, 0.25% deoxycholate, 1 mM sodium vanadate, 10 mM sodium fluoride, 10 mM sodium pyrophosphate, 20 mM β-glycerophosphate and 1× complete EDTA-free protease inhibitor cocktail (Roche)). After 20 minutes the mixture was spun down at 16,000×g for 10 minutes at 4° C. to pellet insoluble materials. Protein concentration of supernatants were determined via BCA assay (Thermo Fisher) before addition of NuPAGE sample buffer containing 5% β-Me and boiling at 95° C. for 10 minutes. Equal amounts of protein were subjected to SDS-PAGE and subsequent electrophoretic transfer onto nitrocellulose membrane. Rabbit antibodies were purchased from Cell Signaling: Fak (3285), p-Fak (3283), p-Paxillin (2541), p-Akt (S473)(4060), GAPDH (2118), Androgen Receptor (5153), p-Src(Y527)(2105), p-S6RP (2215). Mouse antibodies were purchased from Cell Signaling: tubulin (3873), S6RP (2317). […] Immunoblots were developed using enhanced chemiluminescence and visualized using a Bio-Rad Chemi-Doc MP Imaging System and quantitated with Image Lab v.5.2.1 software (Bio-Rad Laboratories). […]

[2] = test system: set of 468 kinases; assay: KinomeScan kinase engagement assay (DiscoverX); assay type: binding; settings: 1000 nM, 403 non-mutant kinases
Experimental: The Kinase engagement assay was performed by DiscoverX assessing binding abilities towards a set of 468 kinases.
Examination of Target Protein Selectivity. To assess the target selectivity of exemplary compound 102 over a large panel of different kinases, a DiscoverX KINOMEScan was performed. KINOMEScan measures compound binding to individual kinases via the compounds ability to compete/displace the kinases from an immobilized support that non-selectively binds kinase active sites. […] It appears that the slight loss in inhibitory potency due to linker and VHL ligand attachment results in greater selectivity.

[3] = test system: PC3 cells; assay: Cell proliferation assay (MTS); assay type: cell-based, human; settings: 96 h
Experimental: (§2) Cells were seeded in 96-well plates and treated with exemplary compound or control as indicated. At desired time points culture medium was supplemented with […] MTS (Promega) and […] phenazine methosulfate (Sigma) and incubated at 37° C. Mitochondrial reduction of MTS to the formazan derivative was monitored by measuring the medium's absorbance at 490 nm using a Wallac Victor 2 plate reader (Perkin-Elmer Life Sciences). Data analysis and statistics was performed using Prism 7.0 (GraphPad).

[4] = test system: MDA-MB-231 cells; assay: Cell proliferation assay (MTS); assay type: cell-based, human; settings: 96 hours
Experimental: as §2

[5] = test system: p-Akt (S473); assay: Fak downstream signaling, western blot in PC3 cells; assay type: cell-based, human; settings: serum deprived PC3 cells, 24 h, increasing concentrations
Experimental: as §1

[6] = test system: MDA-MB-231 cells; assay: Wound healing assay; assay type: cell-based, human; settings: 24 hours
Experimental: MDA-MB-231 cells were maintained in complete growth medium (RPMI-1640) at 37° C. supplied with 5% CO2. Cells (1×10^6) were split in to a 12-well plate. After 24 hours an even wound was created across each well using a sterile 10 μL pipette tip and the cells were washed with warm phosphate-buffered solution (PBS) twice to remove any floating or dead cells. This time point was considered as 0 hours and cells were incubated in fresh medium containing exemplary compound or control as indicated, for 24 hours. Images of wounded area were captured at 0 hour and after 24 hours using a camera attached to a light microscope. Images were analyzed by ImageJ software and wounded area was quantified. The area of the remaining wound at 24 hours was subtracted from the area of the wound at 0 hour. Percent wound healing (migration) was calculated and data presented as a bar graph using Prism 7.0 (GraphPad). Differences between groups were analyzed by Welch's t-test and considered significant when p<0.05.
Since Fak is a key regulator of cell motility, exemplary compound 102 was evaluated for its effect on cell migration and invasion. […] Effects on cell migration were analyzed in a wound healing assay using the aggressive and invasive human TNBC cell line MDA-MB-231. […] Wound closure was quantified after 24 hours (FIGS. 13A and 13B).

With `CNC(=O)c1ccc(Nc2ncc(C(F)(F)F)c(NCc3nccnc3N(C)S(C)(=O)=O)n2)cc1` [Defactinib, defactinib, reference compound] the “AR levels (in words)” value [1] was “no similar effect on AR”, the “Number of Hits, S(10)” value [2] was 39 and the “Number of Hits, S(1)” value ([2]; less than 1% of control remaining) was 9. The “Number of Hits, S(35)” value ([2]; less than 35% of control remaining) was 100, the “cell viability or proliferation (in words)” value [3] was “do not affect cell viability or proliferation within four days” and the “cell viability or proliferation (in words)” value [4] was “do not affect cell viability or proliferation within four days”. The “effect on p-Akt (S473) (in words)” value [5] was “no reduction of p-Akt at concentrations below 5 μM”, the “wound closure (in words)” value ([6]; 50 nM) was “near-complete wound closure” and the “wound healing (in words)” value ([6]; 250 nM) was “non-significant suppression of wound healing”.

From patent US20200038513A1, “MODULATORS OF FAK PROTEOLYSIS AND ASSOCIATED METHODS OF USE” (ARVINAS OPERATIONS, INC., priority 2018, published 2020)
